For seven molecules, binding results are on record in paper PMC12572374, “Regulation of ADP-ribosyltransferase activity by ART domain dimerization in PARP15” (Nature Communications, 2025).

These are yes or no findings as the source states them, for the method shown. For part of these data: Where a sequence is shown, tags or fusion partners need not be part of it.

Assay [1] concerns the target human PARP14 ART domain (His1608-Lys1801) (human) (UniProt Q460N5). The assay can be described thus: SEC-MALS; SEC-RALS/LALS (OMNISEC), Superdex 200 Increase 10/300 GL; 120 µl at 0.75 mg/ml PARP15 constructs, 0.35 mg/ml PARP14 ART, 0.65 mg/ml PARP10 ART; 50 mM HEPES pH 7.5, 300 mM NaCl, 1 mM TCEP; both purified. Background: SEC sorts molecules by how far they enter the pores of the column.

The target is the same in assay [2]. The assay can be described thus: cross-linking; BS3 at 2:1 protein to crosslinker, protein at 2, 10 or 20 µM, 10 min room temperature, 50 mM HEPES pH 7.5, 100 mM NaCl, 4 mM MgCl2, 0.2 mM TCEP; SDS-PAGE, Coomassie; both purified.
In assay [3] the target is PARP15 macrodomain-2 + ART domain construct (m2-ART; Gly287-Ala678) (human) (UniProt Q460N3). In words: mass photometry; single particle sizing at low nanomolar protein concentrations; 20 mM HEPES pH 7.5, 50 mM NaCl, 4 mM MgCl2, 0.5 mM TCEP; both purified.
Assay [4] addresses PARP15 ART domain (Asn481-Ala678) D665A (human) (UniProt Q460N3). In words: SEC; analytical SEC, Superdex 200 Increase 10/300 GL, 100 µl of each ART construct at 0.7 mg/ml; 50 mM HEPES pH 7.5, 300 mM NaCl, 10% glycerol, 0.5 mM TCEP; both purified.
Assay [5] addresses PARP15 ART domain (Asn481-Ala678) R576D (human) (UniProt Q460N3). Described as above.
Assay [6] addresses T1, human PARP15 ART domain (Asn481-Ala678), wild type (human) (UniProt Q460N3).
T1 sequence: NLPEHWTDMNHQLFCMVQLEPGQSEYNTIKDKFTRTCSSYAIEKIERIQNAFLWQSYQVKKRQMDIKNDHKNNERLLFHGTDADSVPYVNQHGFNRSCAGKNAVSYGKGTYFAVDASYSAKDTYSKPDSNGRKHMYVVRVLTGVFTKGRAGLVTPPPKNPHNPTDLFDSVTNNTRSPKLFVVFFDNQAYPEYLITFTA
In words: mass photometry; single particle sizing at low nanomolar protein concentrations; 20 mM HEPES pH 7.5, 50 mM NaCl, 4 mM MgCl2, 0.5 mM TCEP; both purified.

Assay [7] has as its target PARP15 ART domain (Asn481-Ala678) D665R (human) (UniProt Q460N3). In words: SEC; analytical SEC, Superdex 200 Increase 10/300 GL, 100 µl of each ART construct at 0.7 mg/ml; 50 mM HEPES pH 7.5, 300 mM NaCl, 10% glycerol, 0.5 mM TCEP; both purified.
In assay [8] the target is PARP15 macrodomain-2 (Gly287-Asn470) (human) (UniProt Q460N3). In words: SEC-MALS; SEC-RALS/LALS (OMNISEC), Superdex 200 Increase 10/300 GL; 120 µl at 0.75 mg/ml PARP15 constructs, 0.35 mg/ml PARP14 ART, 0.65 mg/ml PARP10 ART; 50 mM HEPES pH 7.5, 300 mM NaCl, 1 mM TCEP; both purified.
Assay [9] shares this target. The assay can be described thus: cross-linking; BS3 at 2:1 protein to crosslinker, protein at 2, 10 or 20 µM, 10 min room temperature, 50 mM HEPES pH 7.5, 100 mM NaCl, 4 mM MgCl2, 0.2 mM TCEP; SDS-PAGE, Coomassie; both purified.

B1: human PARP14 ART domain (His1608-Lys1801) (domain or fragment, UniProt Q460N5 1608-1801)
chain: HWSDMKQQNFCVVELLPSDPEYNTVASKFNQTCSHFRIEKIERIQNPDLWNSYQAKKKTMDAKNGQTMNEKQLFHGTDAGSVPHVNRNGFNRSYAGKNAVAYGKGTYFAVNANYSANDTYSRPDANGRKHVYYVRVLTGIYTHGNHSLIVPPSKNPQNPTDLYDTVTDNVHHPSLFVAFYDYQAYPEYLITFRK
Consider B1, for which the binding result is given as “no binding (tested: 0.35 mg/ml)” in assay [1] and “no binding (tested: 2, 10, or 20 µM)” in assay [2].

B2: PARP15 macrodomain-2 + ART domain construct (m2-ART; Gly287-Ala678) (domain or fragment, human, UniProt Q460N3 287-678, looked up)
chain: GTVSKPCFTAYEMKIGAITFQVATGDIATEQVDVIVNSTARTFNRKSGVSRAILEGAGQAVESECAVLAAQPHRDFIITPGGCLKCKIIIHVPGGKDVRKTVTSVLEECEQRKYTSVSLPAIGTGNAGKNPITVADNIIDAIVDFSSQHSTPSLKTVKVVIFQPELLNIFYDSMKKRDLSASLNFQSTFSMTTCNLPEHWTDMNHQLFCMVQLEPGQSEYNTIKDKFTRTCSSYAIEKIERIQNAFLWQSYQVKKRQMDIKNDHKNNERLLFHGTDADSVPYVNQHGFNRSCAGKNAVSYGKGTYFAVDASYSAKDTYSKPDSNGRKHMYVVRVLTGVFTKGRAGLVTPPPKNPHNPTDLFDSVTNNTRSPKLFVVFFDNQAYPEYLITFTA
notes: PARP15, human, macrodomain-2 and ART domain, residues Gly287-Ala678 of the canonical isoform (isoform 1); synthetic gene, codon optimised for E. coli, in pET151/TOPO; also called PARP15 m2-ART; PARP15 isoform-2 (m2-ART); source: E. coli BL21(DE3), purified (HiTrap TALON, Superdex 200 SEC, HiTrap SP XL cation exchange)
As to B2, the binding result in [3] is “no binding (condition: at low nanomolar concentrations)”.

B3: PARP15 ART domain (Asn481-Ala678) D665A (domain or fragment, UniProt Q460N3 481-678)
chain: NLPEHWTDMNHQLFCMVQLEPGQSEYNTIKDKFTRTCSSYAIEKIERIQNAFLWQSYQVKKRQMDIKNDHKNNERLLFHGTDADSVPYVNQHGFNRSCAGKNAVSYGKGTYFAVDASYSAKDTYSKPDSNGRKHMYVVRVLTGVFTKGRAGLVTPPPKNPHNPTDLFDSVTNNTRSPKLFVVFFANQAYPEYLITFTA
B3: the binding result in [4] was “no binding (tested: 0.7 mg/ml)”.

B4: PARP15 ART domain (Asn481-Ala678) R576D (domain or fragment, UniProt Q460N3 481-678)
chain: NLPEHWTDMNHQLFCMVQLEPGQSEYNTIKDKFTRTCSSYAIEKIERIQNAFLWQSYQVKKRQMDIKNDHKNNERLLFHGTDADSVPYVNQHGFNDSCAGKNAVSYGKGTYFAVDASYSAKDTYSKPDSNGRKHMYVVRVLTGVFTKGRAGLVTPPPKNPHNPTDLFDSVTNNTRSPKLFVVFFDNQAYPEYLITFTA
Consider B4, for which the binding result in [5] was “no binding (tested: 0.7 mg/ml)”.

B5: human PARP15 ART domain (Asn481-Ala678), wild type (domain or fragment, UniProt Q460N3 481-678)
chain: NLPEHWTDMNHQLFCMVQLEPGQSEYNTIKDKFTRTCSSYAIEKIERIQNAFLWQSYQVKKRQMDIKNDHKNNERLLFHGTDADSVPYVNQHGFNRSCAGKNAVSYGKGTYFAVDASYSAKDTYSKPDSNGRKHMYVVRVLTGVFTKGRAGLVTPPPKNPHNPTDLFDSVTNNTRSPKLFVVFFDNQAYPEYLITFTA
On to B5, for which the binding entry in assay [6] is “no binding (condition: at low nanomolar concentrations)”.

B6: PARP15 ART domain (Asn481-Ala678) D665R (domain or fragment, UniProt Q460N3 481-678)
chain: NLPEHWTDMNHQLFCMVQLEPGQSEYNTIKDKFTRTCSSYAIEKIERIQNAFLWQSYQVKKRQMDIKNDHKNNERLLFHGTDADSVPYVNQHGFNRSCAGKNAVSYGKGTYFAVDASYSAKDTYSKPDSNGRKHMYVVRVLTGVFTKGRAGLVTPPPKNPHNPTDLFDSVTNNTRSPKLFVVFFRNQAYPEYLITFTA
For B6, the binding result in [7] was “no binding (tested: 0.7 mg/ml)”.

B7: PARP15 macrodomain-2 (Gly287-Asn470) (domain or fragment, UniProt Q460N3 287-470)
chain: GTVSKPCFTAYEMKIGAITFQVATGDIATEQVDVIVNSTARTFNRKSGVSRAILEGAGQAVESECAVLAAQPHRDFIITPGGCLKCKIIIHVPGGKDVRKTVTSVLEECEQRKYTSVSLPAIGTGNAGKNPITVADNIIDAIVDFSSQHSTPSLKTVKVVIFQPELLNIFYDSMKKRDLSASLN
In the case of B7, the binding entry in assay [8] is reported as “no binding (tested: 0.75 mg/ml)”; in assay [9] it was “no binding (tested: 2, 10, or 20 µM)”.
